The supplement of paper PMC10849652
This is one part of the list.

Chains of the proteins cited; added tags and fusions are not shown. Lines headed by an entry give the natural chain unless they say otherwise; changes in a name come on top.
UniProt Q6P158: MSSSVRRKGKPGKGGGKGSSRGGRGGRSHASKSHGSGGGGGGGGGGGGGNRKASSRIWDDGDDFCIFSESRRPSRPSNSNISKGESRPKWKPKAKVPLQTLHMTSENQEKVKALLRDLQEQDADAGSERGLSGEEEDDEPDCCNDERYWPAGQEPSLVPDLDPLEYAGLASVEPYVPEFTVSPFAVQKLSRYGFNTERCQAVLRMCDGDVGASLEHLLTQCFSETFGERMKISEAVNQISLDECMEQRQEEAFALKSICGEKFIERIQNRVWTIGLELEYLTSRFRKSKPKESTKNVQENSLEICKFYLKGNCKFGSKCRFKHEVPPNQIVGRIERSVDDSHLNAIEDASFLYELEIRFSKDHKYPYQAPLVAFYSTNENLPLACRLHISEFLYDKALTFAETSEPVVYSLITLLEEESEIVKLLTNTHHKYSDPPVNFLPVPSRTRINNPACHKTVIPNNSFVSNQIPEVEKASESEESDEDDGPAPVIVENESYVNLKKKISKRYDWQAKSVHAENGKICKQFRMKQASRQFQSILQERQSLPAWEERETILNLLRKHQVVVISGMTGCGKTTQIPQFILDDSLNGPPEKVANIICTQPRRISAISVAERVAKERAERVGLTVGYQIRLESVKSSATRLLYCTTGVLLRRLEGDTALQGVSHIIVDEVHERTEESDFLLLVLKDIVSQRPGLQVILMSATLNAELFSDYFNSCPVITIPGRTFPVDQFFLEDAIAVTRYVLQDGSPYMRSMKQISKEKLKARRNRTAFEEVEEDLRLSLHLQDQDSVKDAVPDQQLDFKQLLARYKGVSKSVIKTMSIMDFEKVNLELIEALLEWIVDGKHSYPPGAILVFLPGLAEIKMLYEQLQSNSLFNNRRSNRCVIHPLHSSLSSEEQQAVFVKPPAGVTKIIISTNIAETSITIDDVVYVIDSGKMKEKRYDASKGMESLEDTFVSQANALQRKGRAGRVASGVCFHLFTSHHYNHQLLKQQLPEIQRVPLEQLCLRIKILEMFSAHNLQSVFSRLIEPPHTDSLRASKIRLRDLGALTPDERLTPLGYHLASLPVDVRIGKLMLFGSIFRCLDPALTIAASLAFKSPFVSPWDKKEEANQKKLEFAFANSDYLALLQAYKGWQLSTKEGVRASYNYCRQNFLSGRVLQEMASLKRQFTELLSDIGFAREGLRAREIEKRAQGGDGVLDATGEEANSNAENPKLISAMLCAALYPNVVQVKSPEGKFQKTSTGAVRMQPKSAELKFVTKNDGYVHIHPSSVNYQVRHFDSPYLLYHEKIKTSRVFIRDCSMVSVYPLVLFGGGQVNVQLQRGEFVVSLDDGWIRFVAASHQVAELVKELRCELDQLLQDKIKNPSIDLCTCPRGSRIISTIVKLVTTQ
UniProt Q86Y56: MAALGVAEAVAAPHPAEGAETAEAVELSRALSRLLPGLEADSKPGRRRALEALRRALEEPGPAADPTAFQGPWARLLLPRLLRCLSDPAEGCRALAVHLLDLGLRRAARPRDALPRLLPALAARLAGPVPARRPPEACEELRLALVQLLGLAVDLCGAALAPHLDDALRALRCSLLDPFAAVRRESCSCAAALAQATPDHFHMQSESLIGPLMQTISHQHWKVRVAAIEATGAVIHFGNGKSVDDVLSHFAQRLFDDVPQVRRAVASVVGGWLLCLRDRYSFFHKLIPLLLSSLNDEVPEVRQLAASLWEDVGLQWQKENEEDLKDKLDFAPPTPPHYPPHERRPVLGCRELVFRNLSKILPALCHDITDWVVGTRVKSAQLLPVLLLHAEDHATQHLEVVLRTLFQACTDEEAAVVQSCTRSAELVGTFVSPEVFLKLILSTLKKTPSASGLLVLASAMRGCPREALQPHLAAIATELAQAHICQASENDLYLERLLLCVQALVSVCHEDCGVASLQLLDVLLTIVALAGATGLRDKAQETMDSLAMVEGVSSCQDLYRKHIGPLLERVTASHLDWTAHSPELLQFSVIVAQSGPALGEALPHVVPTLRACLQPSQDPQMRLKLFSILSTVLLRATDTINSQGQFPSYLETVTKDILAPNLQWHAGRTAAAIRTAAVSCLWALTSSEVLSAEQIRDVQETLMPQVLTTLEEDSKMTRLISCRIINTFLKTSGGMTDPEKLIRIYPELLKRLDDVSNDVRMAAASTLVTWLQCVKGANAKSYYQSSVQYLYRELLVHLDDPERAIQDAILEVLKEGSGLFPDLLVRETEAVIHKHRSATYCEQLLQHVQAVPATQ
UniProt P30046: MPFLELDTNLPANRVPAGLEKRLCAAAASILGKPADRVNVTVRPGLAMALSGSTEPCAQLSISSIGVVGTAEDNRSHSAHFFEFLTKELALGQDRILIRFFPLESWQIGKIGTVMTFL
UniProt Q9NR28: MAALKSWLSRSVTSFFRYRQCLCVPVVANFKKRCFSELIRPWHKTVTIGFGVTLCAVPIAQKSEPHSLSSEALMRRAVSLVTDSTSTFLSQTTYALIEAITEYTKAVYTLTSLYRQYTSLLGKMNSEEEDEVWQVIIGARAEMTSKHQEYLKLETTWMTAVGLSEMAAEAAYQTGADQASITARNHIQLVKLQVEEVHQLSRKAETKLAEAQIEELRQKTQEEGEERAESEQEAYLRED
UniProt P26196: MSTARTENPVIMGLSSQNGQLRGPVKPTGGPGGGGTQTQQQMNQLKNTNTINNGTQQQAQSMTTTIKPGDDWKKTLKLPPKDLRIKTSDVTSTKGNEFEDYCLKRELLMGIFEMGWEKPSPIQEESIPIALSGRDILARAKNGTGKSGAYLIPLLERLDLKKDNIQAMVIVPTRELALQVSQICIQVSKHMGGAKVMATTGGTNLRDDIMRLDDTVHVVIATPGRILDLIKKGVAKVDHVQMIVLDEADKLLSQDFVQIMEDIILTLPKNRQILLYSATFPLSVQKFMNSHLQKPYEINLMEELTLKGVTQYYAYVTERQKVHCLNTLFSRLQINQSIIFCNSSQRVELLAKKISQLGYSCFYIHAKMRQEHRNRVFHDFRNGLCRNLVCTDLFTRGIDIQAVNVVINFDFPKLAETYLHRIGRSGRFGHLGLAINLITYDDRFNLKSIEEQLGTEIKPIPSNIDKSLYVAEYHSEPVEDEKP
UniProt O43143: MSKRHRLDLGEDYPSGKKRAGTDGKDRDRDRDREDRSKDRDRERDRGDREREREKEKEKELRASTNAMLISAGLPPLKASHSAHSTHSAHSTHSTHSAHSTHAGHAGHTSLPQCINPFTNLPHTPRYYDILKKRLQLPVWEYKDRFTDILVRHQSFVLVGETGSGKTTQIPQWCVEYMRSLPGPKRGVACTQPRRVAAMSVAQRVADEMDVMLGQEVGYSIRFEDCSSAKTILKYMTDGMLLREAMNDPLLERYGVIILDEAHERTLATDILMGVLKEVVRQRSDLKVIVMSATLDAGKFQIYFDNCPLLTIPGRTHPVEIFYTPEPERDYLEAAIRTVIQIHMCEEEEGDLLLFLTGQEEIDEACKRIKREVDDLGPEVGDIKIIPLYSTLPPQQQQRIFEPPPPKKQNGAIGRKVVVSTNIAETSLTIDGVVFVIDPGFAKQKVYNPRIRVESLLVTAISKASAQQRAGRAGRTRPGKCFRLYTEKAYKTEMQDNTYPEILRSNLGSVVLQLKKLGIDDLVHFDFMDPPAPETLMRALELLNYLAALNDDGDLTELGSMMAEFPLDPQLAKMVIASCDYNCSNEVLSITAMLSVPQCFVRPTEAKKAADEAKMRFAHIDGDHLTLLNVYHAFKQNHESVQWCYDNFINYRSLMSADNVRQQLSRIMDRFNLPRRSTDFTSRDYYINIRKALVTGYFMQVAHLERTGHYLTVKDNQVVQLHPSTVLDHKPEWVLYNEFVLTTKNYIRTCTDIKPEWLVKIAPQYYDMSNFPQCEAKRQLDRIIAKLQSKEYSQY
UniProt Q9GZR7: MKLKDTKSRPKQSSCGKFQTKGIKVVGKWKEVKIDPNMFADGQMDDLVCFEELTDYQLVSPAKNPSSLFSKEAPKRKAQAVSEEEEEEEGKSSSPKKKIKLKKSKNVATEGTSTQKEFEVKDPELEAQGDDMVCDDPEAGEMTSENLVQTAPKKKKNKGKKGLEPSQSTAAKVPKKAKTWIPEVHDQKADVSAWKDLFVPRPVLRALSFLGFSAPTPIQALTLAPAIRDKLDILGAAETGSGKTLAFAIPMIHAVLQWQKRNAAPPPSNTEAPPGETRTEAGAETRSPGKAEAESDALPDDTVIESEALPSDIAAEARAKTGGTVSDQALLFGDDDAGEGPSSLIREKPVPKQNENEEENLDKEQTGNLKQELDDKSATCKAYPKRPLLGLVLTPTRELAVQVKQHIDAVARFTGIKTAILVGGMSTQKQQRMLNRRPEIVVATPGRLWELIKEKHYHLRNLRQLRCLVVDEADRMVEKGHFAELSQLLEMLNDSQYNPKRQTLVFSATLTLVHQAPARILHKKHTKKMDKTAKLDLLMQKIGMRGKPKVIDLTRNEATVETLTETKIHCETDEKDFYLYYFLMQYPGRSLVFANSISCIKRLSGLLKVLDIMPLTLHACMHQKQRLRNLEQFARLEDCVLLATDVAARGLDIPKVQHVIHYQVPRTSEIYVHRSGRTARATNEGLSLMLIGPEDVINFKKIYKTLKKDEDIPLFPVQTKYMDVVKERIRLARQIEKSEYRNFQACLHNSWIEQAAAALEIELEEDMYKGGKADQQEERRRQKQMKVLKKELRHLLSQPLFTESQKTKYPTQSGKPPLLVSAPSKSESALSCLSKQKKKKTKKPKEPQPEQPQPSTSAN
UniProt P35659: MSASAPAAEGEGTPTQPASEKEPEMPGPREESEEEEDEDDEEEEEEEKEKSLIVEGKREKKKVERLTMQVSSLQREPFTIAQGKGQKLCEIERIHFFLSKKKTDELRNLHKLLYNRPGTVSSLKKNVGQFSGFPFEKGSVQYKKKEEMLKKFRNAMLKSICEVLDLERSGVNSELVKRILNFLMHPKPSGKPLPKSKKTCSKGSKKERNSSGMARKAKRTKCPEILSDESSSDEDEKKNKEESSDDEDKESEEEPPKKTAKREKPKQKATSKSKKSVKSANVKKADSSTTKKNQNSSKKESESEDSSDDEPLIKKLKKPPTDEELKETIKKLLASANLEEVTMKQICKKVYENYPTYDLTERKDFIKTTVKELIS
UniProt Q9BTZ2: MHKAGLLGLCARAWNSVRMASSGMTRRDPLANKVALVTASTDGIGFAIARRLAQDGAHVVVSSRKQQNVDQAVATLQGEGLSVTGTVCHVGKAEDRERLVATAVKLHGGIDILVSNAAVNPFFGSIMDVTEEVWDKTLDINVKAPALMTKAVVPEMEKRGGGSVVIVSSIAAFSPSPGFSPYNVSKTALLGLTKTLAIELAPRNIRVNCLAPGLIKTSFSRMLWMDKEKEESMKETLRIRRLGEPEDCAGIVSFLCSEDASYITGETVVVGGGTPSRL
UniProt Q16531, whole entry, looked up: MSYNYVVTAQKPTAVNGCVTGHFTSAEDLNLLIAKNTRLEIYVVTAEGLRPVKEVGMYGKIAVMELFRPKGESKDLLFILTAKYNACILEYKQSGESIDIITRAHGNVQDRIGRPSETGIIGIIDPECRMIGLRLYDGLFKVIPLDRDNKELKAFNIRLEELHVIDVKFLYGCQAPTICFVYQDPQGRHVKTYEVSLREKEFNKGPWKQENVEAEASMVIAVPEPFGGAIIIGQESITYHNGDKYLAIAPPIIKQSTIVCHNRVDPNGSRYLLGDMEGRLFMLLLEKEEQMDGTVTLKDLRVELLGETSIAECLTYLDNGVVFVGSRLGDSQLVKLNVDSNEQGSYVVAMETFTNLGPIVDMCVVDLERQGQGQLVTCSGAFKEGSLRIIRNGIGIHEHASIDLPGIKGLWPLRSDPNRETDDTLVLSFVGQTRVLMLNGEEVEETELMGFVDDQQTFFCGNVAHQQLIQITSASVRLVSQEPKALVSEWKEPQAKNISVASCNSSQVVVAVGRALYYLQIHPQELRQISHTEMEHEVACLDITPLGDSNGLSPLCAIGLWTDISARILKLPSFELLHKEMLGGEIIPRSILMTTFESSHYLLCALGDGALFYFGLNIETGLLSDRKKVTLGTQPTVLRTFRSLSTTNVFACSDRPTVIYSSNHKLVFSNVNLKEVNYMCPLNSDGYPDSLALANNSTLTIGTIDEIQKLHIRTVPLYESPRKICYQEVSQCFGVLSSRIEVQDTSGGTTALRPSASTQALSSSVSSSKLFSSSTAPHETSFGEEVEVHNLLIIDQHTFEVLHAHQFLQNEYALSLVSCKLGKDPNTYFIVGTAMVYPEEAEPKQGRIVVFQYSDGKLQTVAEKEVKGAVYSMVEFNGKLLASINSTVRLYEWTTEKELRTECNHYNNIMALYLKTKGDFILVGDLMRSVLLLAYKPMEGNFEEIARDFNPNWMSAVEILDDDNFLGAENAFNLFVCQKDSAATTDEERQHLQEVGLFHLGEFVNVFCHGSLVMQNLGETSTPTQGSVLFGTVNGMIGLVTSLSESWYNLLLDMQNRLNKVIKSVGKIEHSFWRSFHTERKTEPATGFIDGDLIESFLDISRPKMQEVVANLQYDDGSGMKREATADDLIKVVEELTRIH

Columns and labels:
Assay in all cases: log2 fold change, soluble protein after heating vs DMSO (PISA); higher = thermal stabilisation; K562 cells, 10 uM, 30 min; active = over 0.2 and 3.5 SD of the protein, either way, in both replicates (recomputed)
[1] = compound: CS(=O)(=O)c1ccc(-c2cnc(N)c(C(=O)Nc3ccccc3)n2)cc1
In short: (§1)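 K562 cells at 2×10^6 cells/mL were treated with 10 μM compound for 30 min. Aliquots were heated for 3 min across 48°C-58°C, pooled, and extracted in PBS with 0.5% NP-40 at 4°C; soluble protein was the supernatant after 21,000xg for 90 min. Soluble protein was quantified by TMTpro 16plex LC-MS/MS with channel sums equalised, and reported as log2 fold change in thermal stability against DMSO controls, with values from duplicates.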

[2] = compound: C[C@@H](Oc1cc(-c2cnn(C3CCNCC3)c2)cnc1N)c1c(Cl)ccc(F)c1Cl [crizotinib]
In short: as §1

[3] = compound: C[C@@H]1COCCN1C2=NC(=NC(=C2)C3(CC3)S(=O)(=O)C)C4=C5C=CNC5=CC=C4
In short: as §1

[4] = compound: C[C@H](C1=CC=C(C=C1)C(=O)NC2=C3C=CNC3=NC=C2)N
In short: as §1

[5] = compound: C[C@H](Nc1ncnc2nc[nH]c12)c1cc2cccc(Cl)c2c(=O)n1-c1ccccc1 [duvelisib]
In short: as §1

[6] = compound: Cc1cc(Nc2cc(CN3CCOCC3)c3nc(C)c(Cc4ccc(Cl)cc4F)n3n2)n[nH]1 [gandotinib]
In short: as §1

[7] = compound: Cc1cc(Nc2cc(N3CCN(C)CC3)nc(Sc3ccc(NC(=O)C4CC4)cc3)n2)n[nH]1 [tozasertib]
In short: as §1

[8] = compound: Cc1cc(SCc2sc(-c3ccc(C(F)(F)F)cc3)nc2C)ccc1OCC(=O)O
In short: as §1

[9] = compound: Cc1ccc(-n2nc(C(C)(C)C)cc2NC(=O)Nc2ccc(OCCN3CCOCC3)c3ccccc23)cc1 [doramapimod]
In short: as §1

[10] = compound: Cc1ccc(C(=O)N(CCCN)[C@@H](c2nc3cc(Cl)ccc3c(=O)n2Cc2ccccc2)C(C)C)cc1 [ispinesib]
In short: as §1

[11] = compound: Cc1ccc(NC(=O)c2ccc(CN3CC[C@H](N(C)C)C3)c(C(F)(F)F)c2)cc1Nc1nccc(-c2cncnc2)n1 [bafetinib]
In short: as §1

[12] = compound: Cc1cccc(CC(=O)N2CCc3c2ccc(-c2cn(C)c4ncnc(N)c24)c3F)n1
In short: as §1

[13] = compound: Cc1cn(-c2cc(NC(=O)c3ccc(C)c(Nc4nccc(-c5cccnc5)n4)c3)cc(C(F)(F)F)c2)cn1 [nilotinib]
In short: as §1

[14] = compound: Cc1nc(Nc2n[nH]c3c2CN(C(=O)N[C@H](CN(C)C)c2ccccc2)C3(C)C)c2sccc2n1
In short: as §1

[15] = compound: Cc1nc(Nc2ncc(C(=O)Nc3c(C)cccc3Cl)s2)cc(N2CCN(CCO)CC2)n1 [dasatinib]
In short: as §1

[16] = compound: Cc1ncc(-c2ccnc(Nc3ccc(S(C)(=O)=O)cc3)n2)n1C(C)C
In short: as §1

[17] = compound: Cn1cc(-c2ccc3c(c2)CCN3C(=O)Cc2cccc(C(F)(F)F)c2)c2c(N)ncnc21
In short: as §1

[18] = compound: Cn1cc(-c2ccc3nnc(C(F)(F)c4ccc5ncccc5c4)n3n2)cn1
In short: as §1

[19] = compound: Cn1cncc1[C@@](N)(c1ccc(Cl)cc1)c1ccc2c(c1)c(-c1cccc(Cl)c1)cc(=O)n2C [tipifarnib]
In short: as §1

[20] = compound: FC(F)(F)c1ccc(/C=C/c2nc(COc3ccc(CCCCn4ccnn4)cc3)co2)cc1 [mubritinib]
In short: as §1

Measured: log2 fold change

DHX57 (UniProt Q6P158)
inactive: [1] -0.027 | [2] -0.001 | [3] -0.209 | [4] 0.207 | [5] -0.071 | [6] 0.094 | [7] 0.072 | [8] 0.056 | [9] 0.155 | [10] -0.04 | [11] 0.105 | [12] 0.058 | [13] -0.039 | [14] -0.017 | [15] 0.021 | [16] 0.029 | [17] -0.164 | [18] -0.124 | [19] 0.037 | [20] -0.039

DDX39B isoform 2 (UniProt Q13838)
inactive: [1] -0.008 | [2] 0.083 | [3] -0.006 | [4] 0.054 | [5] -0.009 | [6] -0.024 | [7] -0.014 | [8] 0.002 | [9] 0.018 | [10] 0.083 | [11] 0.036 | [12] -0.055 | [13] -0.021 | [14] 0.046 | [15] 0.038 | [16] 0.032 | [17] -0.05 | [18] -0.065 | [19] 0.025 | [20] -0.096

DNAAF5 (UniProt Q86Y56)
inactive: [1] 0.225 | [2] -0.17 | [3] -0.379 | [4] 0.523 | [5] -0.12 | [6] 0.283 | [7] 0.1 | [8] 0.107 | [9] 0.349 | [10] -0.312 | [11] -0.001 | [12] 0.11 | [15] 0.003 | [17] -0.238 | [18] -0.086 | [19] 0.097 | [20] 0.033

Random excerpt: two entries already listed, in no set order.
DHX57 (UniProt Q6P158)
inactive: [1] -0.027 | [2] -0.001 | [3] -0.209 | [4] 0.207 | [5] -0.071 | [6] 0.094 | [7] 0.072 | [8] 0.056 | [9] 0.155 | [10] -0.04 | [11] 0.105 | [12] 0.058 | [13] -0.039 | [14] -0.017 | [15] 0.021 | [16] 0.029 | [17] -0.164 | [18] -0.124 | [19] 0.037 | [20] -0.039

DDX39B isoform 2 (UniProt Q13838)
inactive: [1] -0.008 | [2] 0.083 | [3] -0.006 | [4] 0.054 | [5] -0.009 | [6] -0.024 | [7] -0.014 | [8] 0.002 | [9] 0.018 | [10] 0.083 | [11] 0.036 | [12] -0.055 | [13] -0.021 | [14] 0.046 | [15] 0.038 | [16] 0.032 | [17] -0.05 | [18] -0.065 | [19] 0.025 | [20] -0.096

(cont.)

DDT (UniProt P30046)
inactive: [1] 0.007 | [2] 0.094 | [3] 0.155 | [4] -0.069 | [5] 0.046 | [6] 0.018 | [7] 0.019 | [8] -0.059 | [9] -0.004 | [10] 0.036 | [11] 0 | [12] -0.04 | [13] 0.01 | [14] 0.01 | [15] 0.089 | [16] -0.013 | [17] 0.135 | [18] 0.086 | [19] -0.103 | [20] 0.039

DES (UniProt P17661)
inactive: [1] 0.203 | [2] 0.229 | [3] -0.179 | [4] 0.06 | [5] 0.073 | [6] 0.226 | [7] -0.109 | [8] -0.054 | [9] 0.138 | [10] -0.065 | [11] -0.132 | [12] -0.078 | [13] 0.124 | [14] -0.014 | [15] 0.171 | [16] -0.032 | [17] 0.1 | [18] 0.016 | [19] -0.07 | [20] 0.025

DIABLO (UniProt Q9NR28)
inactive: [1] -0.039 | [2] 0.057 | [3] 0.107 | [4] -0.077 | [5] 0.018 | [6] -0.113 | [7] -0.008 | [8] -0.02 | [9] -0.014 | [10] -0.023 | [11] -0.065 | [12] 0.093 | [13] -0.022 | [14] 0.027 | [15] 0.026 | [16] -0.025 | [17] 0.036 | [18] 0.113 | [19] 0.022 | [20] 0.058

DDX6 (UniProt P26196)
inactive: [1] 0.055 | [2] -0.035 | [3] -0.076 | [4] 0.017 | [5] -0.023 | [6] 0 | [7] -0.003 | [8] 0.051 | [9] 0.014 | [10] -0.011 | [11] 0.056 | [12] 0.017 | [13] 0.004 | [14] 0.022 | [15] -0.071 | [16] -0.016 | [17] -0.001 | [18] -0.035 | [19] -0.041 | [20] 0.026

DHX15 (UniProt O43143)
inactive: [1] 0.014 | [2] 0.024 | [3] -0.004 | [4] -0.072 | [5] 0.019 | [6] 0.001 | [7] -0.027 | [8] -0.037 | [9] -0.001 | [10] 0.034 | [11] -0.026 | [12] 0.009 | [13] -0.036 | [14] 0.011 | [15] 0.013 | [16] 0.01 | [17] 0.021 | [18] 0.006 | [19] -0.001 | [20] 0.008

DDX24 (UniProt Q9GZR7)
inactive: [1] 0.014 | [2] 0.024 | [3] -0.278 | [4] 0.398 | [5] -0.083 | [6] 0.174 | [7] 0.094 | [8] -0.021 | [9] 0.135 | [10] 0.013 | [12] 0.081 | [15] 0.236 | [17] -0.265 | [18] -0.12 | [19] 0.017 | [20] 0.072

DHRS4L1 (UniProt P0CG22)
inactive: [1] 0.046 | [2] 0.146 | [3] 0.093 | [4] -0.008 | [5] 0.068 | [6] -0.034 | [7] -0.003 | [8] -0.02 | [9] -0.043 | [10] 0.007 | [11] -0.081 | [12] -0.034 | [13] -0.051 | [14] 0.061 | [15] 0.009 | [16] -0.015 | [17] 0.056 | [18] 0.032 | [19] 0.004 | [20] -0.034

DEK (UniProt P35659)
inactive: [1] 0.042 | [2] 0.078 | [3] 0.075 | [4] -0.088 | [5] 0.1 | [6] -0.063 | [7] 0.059 | [8] 0.107 | [9] -0.121 | [10] -0.02 | [11] 0.007 | [12] 0.02 | [13] -0.082 | [14] -0.01 | [15] -0.064 | [16] 0.012 | [17] 0.034 | [18] 0.046 | [19] -0.052 | [20] 0.012

DLAT (UniProt P10515)
inactive: [1] 0.054 | [2] 0.02 | [3] -0.335 | [4] 0.267 | [5] -0.18 | [6] 0.088 | [7] 0.141 | [8] 0.119 | [9] 0.146 | [10] -0.118 | [11] 0.232 | [12] 0.026 | [13] -0.037 | [14] 0.151 | [15] 0.054 | [16] -0.064 | [17] -0.257 | [18] -0.06 | [19] 0.227 | [20] -0.261

DDX49 (UniProt Q9Y6V7)
inactive: [1] 0.033 | [2] -0.059 | [3] -0.134 | [4] 0.157 | [5] -0.092 | [6] 0.055 | [7] -0.122 | [8] 0.002 | [9] 0.086 | [10] 0.017 | [11] 0.267 | [12] -0.038 | [13] 0.135 | [14] 0.106 | [15] 0.063 | [16] 0.008 | [17] -0.054 | [18] -0.08 | [19] 0.035 | [20] 0.091

DHRS4 (UniProt Q9BTZ2)
inactive: [1] -0.004 | [2] 0.045 | [3] 0.031 | [4] -0.097 | [5] -0.025 | [6] -0.077 | [7] -0.005 | [8] -0.016 | [9] -0.017 | [10] 0.116 | [11] -0.042 | [12] 0.002 | [13] -0.023 | [14] -0.027 | [15] 0.014 | [16] -0.002 | [17] 0.011 | [18] -0.008 | [19] -0.031 | [20] -0.005

DDB1 (UniProt Q16531)
inactive: [1] 0.005 | [2] 0.033 | [3] 0.026 | [4] -0.039 | [6] -0.028 | [8] -0.037 | [9] -0.033 | [10] 0.009 | [11] -0.019 | [12] -0.025 | [13] -0.004 | [14] 0.027 | [15] 0.046 | [16] -0.016 | [17] 0.011 | [18] -0.001 | [19] -0.014 | [20] 0.023
